The target in assay [1] is T1, Aquaporin 2 (AQP2), mouse, endogenous (mouse (endogenous in mpkCCD14 cells and mouse kidney tubules)) (UniProt P56402).
T1 sequence: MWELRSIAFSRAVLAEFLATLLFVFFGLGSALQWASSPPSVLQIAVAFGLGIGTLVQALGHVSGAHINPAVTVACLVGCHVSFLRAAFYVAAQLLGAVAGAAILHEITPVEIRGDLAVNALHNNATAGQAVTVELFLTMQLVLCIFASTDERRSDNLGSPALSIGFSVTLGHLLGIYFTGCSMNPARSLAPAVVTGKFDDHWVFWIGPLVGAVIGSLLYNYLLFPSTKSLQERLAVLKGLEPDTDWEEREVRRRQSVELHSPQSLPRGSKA
Briefly: co-IP; mpkCCD14 cell lysate (20 mM Tris, 135 mM NaCl, pH 7.5, 5 mM EDTA, 1% Nonidet P-40); IP with anti-AQP2 antibody on Protein-A-agarose, 60 min at room temperature; blot for USP4; cells treated with vehicle or dDAVP for 20 min before lysis.

Assay [2] concerns the target T1, Aquaporin 2 (AQP2), mouse, endogenous (mouse (endogenous in mpkCCD14 cells and mouse kidney tubules)). Briefly: co-IP; lysates of mouse kidney tubule suspensions (IP buffer: 20 mM Tris, 135 mM NaCl, 5 mM EDTA, 1% NP40); IP with anti-AQP2 or anti-USP4 antibodies; blots for USP4 and AQP2; tubules treated with vehicle or dDAVP for 30 min.
Assay [3] concerns the target T2, ubiquitin-specific protease 4 (USP4), mouse, endogenous (mouse (endogenous in mpkCCD14 cells and mouse kidney tubules)) (UniProt P35123).
T2 sequence: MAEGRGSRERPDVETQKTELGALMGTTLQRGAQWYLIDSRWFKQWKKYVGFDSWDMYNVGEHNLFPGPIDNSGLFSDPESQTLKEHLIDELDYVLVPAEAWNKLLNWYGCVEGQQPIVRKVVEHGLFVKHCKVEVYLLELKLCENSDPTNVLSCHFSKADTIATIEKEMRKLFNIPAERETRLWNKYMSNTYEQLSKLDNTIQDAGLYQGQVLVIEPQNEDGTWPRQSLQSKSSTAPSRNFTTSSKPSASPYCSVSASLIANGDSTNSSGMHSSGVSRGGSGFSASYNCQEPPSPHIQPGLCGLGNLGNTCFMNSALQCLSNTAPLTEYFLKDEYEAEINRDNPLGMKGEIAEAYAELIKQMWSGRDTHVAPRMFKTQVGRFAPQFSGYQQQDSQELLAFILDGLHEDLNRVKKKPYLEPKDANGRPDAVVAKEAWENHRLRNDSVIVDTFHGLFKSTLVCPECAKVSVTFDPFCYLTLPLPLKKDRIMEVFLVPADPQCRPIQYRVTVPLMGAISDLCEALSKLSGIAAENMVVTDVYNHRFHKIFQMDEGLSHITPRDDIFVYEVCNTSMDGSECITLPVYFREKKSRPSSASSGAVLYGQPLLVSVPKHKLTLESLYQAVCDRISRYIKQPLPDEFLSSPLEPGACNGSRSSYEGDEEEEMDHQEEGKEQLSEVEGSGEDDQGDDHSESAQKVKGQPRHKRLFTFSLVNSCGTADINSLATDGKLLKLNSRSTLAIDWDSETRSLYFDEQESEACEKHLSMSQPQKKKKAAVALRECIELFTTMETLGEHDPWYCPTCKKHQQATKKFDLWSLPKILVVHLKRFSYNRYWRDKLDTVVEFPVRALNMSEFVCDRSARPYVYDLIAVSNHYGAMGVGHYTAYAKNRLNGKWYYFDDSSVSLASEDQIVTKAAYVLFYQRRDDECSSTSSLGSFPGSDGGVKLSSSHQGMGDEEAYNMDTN
The assay is described as above.

No constants are given. Whether binding was seen depends on the method and setting. In cells and extracts the contact can be indirect. Some binding calls cover weakened binding; strength is not graded here.

B1: ubiquitin-specific protease 4 (USP4), mouse, endogenous (enzyme, UniProt P35123 1-962)
chain: T2 sequence
With B1, the binding entry in assay [1] and in assay [2] was “binds” throughout.

B2: Aquaporin 2 (AQP2), mouse, endogenous (protein, UniProt P56402 1-271)
chain: T1 sequence
For B2, in assay [3], the binding entry was “binds”.

The values above are taken from paper PMC6468601.
